This is a noisy data set.
B1: human tRNA-Pro; a variant is named by its letters at N, in order (parent)
chain: GGCTCGTTGGTCTAGNGGTATGATTCTCGCTTAGGGTGCGAGAGGTCCCGGGTTCNNATCCCGGACGAGCCC

Variants of: B1
Experiment: tRNA 5' processing efficiency (processed reads / all reads, maximum-likelihood estimate) (fraction); higher = more efficient 5' processing
Conditions: HEK293T; construct: CMV Pol-II promoter ((+)CMV library, decapped)

Variant | tRNA 5' processing efficiency
GGCTCGTTGGTCTAGTGGGATGATTCTCGCTTAGGGTGCGAGAGGTCCCGGGTGTAAGTCCCGGACGAGCCC [TAA T19G T54G C55T A58G] | 0.33
GGCTCGTTGGTCTAGAGGGATGATTCTCGCTTAGGGTGCGAGAGGTCCCGGGTTCAATTCCCGGACGAGCCC [AAA T19G A58T] | 0.29
GGCTCGTGTGTCTAGCGGCATGATTCTCGCTTAGGGTGCGAGAGGTCCCGGGTTGAAATCCCGGACGAGCCC [CAA T8G G9T T19C C55G] | 0.25
GGCTCGTGGGTCTAGGGGTATGATTCTCGCTTAGGGTGCGAGAGGTCCCGGGTACAATTCCCGGACGAGCCC [GAA T8G T54A A58T] | 0.2
GGCTCGTTGGTCTAGTGGCATGATTCTCGCTTAGGGTGCGAGAGGTCCCGGGATGAAATCCCGGACGAGCCC [TAA T19C T53A C55G] | 0.4
GGCTCGTGGGTCTATAGGGTTGATTCTCGCTTAGGGTGCGAGAGGTCCCGGGTTCAAGGCCCGGACGAGCCC [AAA T8G G15T T19G A20T A58G T59G] | 0.33
GGCTCGTGGGTCTAGGGGTATGATTCTCGCTTAGGGTGCGAGAGGTCCCGGGTTGAAATCCCGGACGAGCCC [GAA T8G C55G] | 0.4
GGCTCGTGGGTCTAGGTGTTTGATTCTCGCTTAGGGTGCGAGAGGTCCCGGGTTAAAATCCCGGACGAGCCC [GAA T8G G17T A20T C55A] | 0.13
GGCTCGTTGGTCTAGGGGGATGATTCTCGCTTAGGGTGCGAGAGGTCCCGGGTACAAGTCCCGGACGAGCCC [GAA T19G T54A A58G] | 0.33
GGCTCGTTGGTCTAGCGGAATGATTCTCGCTTAGGGTGCGAGAGGTCCCGGGTACAAATCCCGGACGAGCCC [CAA T19A T54A] | 0.17
GGCTCGTCGGTCTAGGGGCATGATTCTCGCTTAGGGTGCGAGAGGTCCCGGGTTTAAATCCCGGACGAGCCC [GAA T8C T19C C55T] | 0.6
GGCTCGTCGGTCTAGGGTGATGATTCTCGCTTAGGGTGCGAGAGGTCCCGGGTTCAAGTCCCGGACGAGCCC [GAA T8C G18T T19G A58G] | 0.33
GGCTCGTGGGTCTAGGGGGATGATTCTCGCTTAGGGTGCGAGAGGTCCCGGGTTCAAAGCCCGGACGAGCCC [GAA T8G T19G T59G] | 0.25
GGCTCGTGGGTCTTGGGGTATGATTCTCGCTTAGGGTGCGAGAGGTCCCGGGTTCAAATCCCGGACGAGCCC [GAA T8G A14T] | 0.4
GGCTCGTGGGTCTCGGGGTATGATTCTCGCTTAGGGTGCGAGAGGTCCCGGGTTCAAACCCCGGACGAGCCC [GAA T8G A14C T59C] | 0.5
GGCTCGTCGGTCTAGTGGGTTGATTCTCGCTTAGGGTGCGAGAGGTCCCGGGTGCAAATCCCGGACGAGCCC [TAA T8C T19G A20T T54G] | 0.14
GGCTCGTCGGTCTAGTTGTATGATTCTCGCTTAGGGTGCGAGAGGTCCCGGGGTCAAATCCCGGACGAGCCC [TAA T8C G17T T53G] | 0.4
GGCTCGTGGGTCTAGGTGTATGATTCTCGCTTAGGGTGCGAGAGGTCCCGGGTTCAAATCCCGGACGAGCCC [GAA T8G G17T] | 0.22
GGCTCGTTGGTCTAGGGGCATGATTCTCGCTTAGGGTGCGAGAGGTCCCGGGTTAAAATCCCGGACGAGCCC [GAA T19C C55A] | 0.33

Variant | tRNA 5' processing efficiency
GGCTCGTGGGTCTAGGGTTATGATTCTCGCTTAGGGTGCGAGAGGTCCCGGGGTCAAATCCCGGACGAGCCC [GAA T8G G18T T53G] | 0.14
GGCTCGTGAGTCTGGGGATATGATTCTCGCTTAGGGTGCGAGAGGTCCCGGGTTCAAATCCCGGACGAGCCC [GAA T8G G9A A14G G18A] | 0.17
GGCTCGTGGGTCTAGGCGGATGATTCTCGCTTAGGGTGCGAGAGGTCCCGGGTCCAAATCCCGGACGAGCCC [GAA T8G G17C T19G T54C] | 0.25
GGCTCGTGGGTCTAGGGGTTTGATTCTCGCTTAGGGTGCGAGAGGTCCCGGGTTCAAATCCCGGACGAGCCC [GAA T8G A20T] | 0.29
GGCTCGTGGGTCTAGGTGTATGATTCTCGCTTAGGGTGCGAGAGGTCCCGGGTTTAAATCCCGGACGAGCCC [GAA T8G G17T C55T] | 0.25
GGCTCGTGGGTCTAGGTGTGTGATTCTCGCTTAGGGTGCGAGAGGTCCCGGGTTCAAATCCCGGACGAGCCC [GAA T8G G17T A20G] | 0.2
GGCTCGTGGGTCTATGGGCCTGATTCTCGCTTAGGGTGCGAGAGGTCCCGGGTTCAAACCCCGGACGAGCCC [GAA T8G G15T T19C A20C T59C] | 0.2
GGCTCGTCGGTCTAGGGGAATGATTCTCGCTTAGGGTGCGAGAGGTCCCGGGTTCAAATCCCGGACGAGCCC [GAA T8C T19A] | 0.13
GGCTCGTGGGTCTAGGGAGATGATTCTCGCTTAGGGTGCGAGAGGTCCCGGGTTCAAACCCCGGACGAGCCC [GAA T8G G18A T19G T59C] | 0.2
GGCTCGTGGGTCTAGTGGTATGATTCTCGCTTAGGGTGCGAGAGGTCCCGGGTTGAAATCCCGGACGAGCCC [TAA T8G C55G] | 0.1
GGCTCGTGGGTCTAGGAGTATGATTCTCGCTTAGGGTGCGAGAGGTCCCGGGTACAAAGCCCGGACGAGCCC [GAA T8G G17A T54A T59G] | 0.33
GGCTCGTTGGTCTAGGGGGATGATTCTCGCTTAGGGTGCGAGAGGTCCCGGGTTCAACTCCCGGACGAGCCC [GAA T19G A58C] | 0.33
GGCTCGTGGGTCTAGGGCTATGATTCTCGCTTAGGGTGCGAGAGGTCCCGGGTTCAAATCCCGGACGAGCCC [GAA T8G G18C] | 0.33
GGCTCGTGGGTCTAGGGGTATGATTCTCGCTTAGGGTGCGAGAGGTCCCGGGTGGAAGCCCCGGACGAGCCC [GAA T8G T54G C55G A58G T59C] | 0.2
GGCTCGTGGGTCTAGGGGTATGATTCTCGCTTAGGGTGCGAGAGGTCCCGGGGGCAAATCCCGGACGAGCCC [GAA T8G T53G T54G] | 0.2
GGCTCGTGGGTCTTGGGGTATGATTCTCGCTTAGGGTGCGAGAGGTCCCGGGATCAAATCCCGGACGAGCCC [GAA T8G A14T T53A] | 0.25
GGCTCGTGGGTCTAGGGGTATGATTCTCACTTAGGGTGCGAGAGGTCCCGGGTTTAATTCCCGGACGAGCCC [GAA T8G G29A C55T A58T] | 0.25
GGCTCGTTGGTCTAGGGGTATGATTCTCGCTTAGGGTGCGAGAGGTCCCGGGAACAAAACCCGGACGAGCCC [GAA T53A T54A T59A] | 0.25

Shown as a markdown table: part of the list above

| Variant | tRNA 5' processing efficiency |
| --- | --- |
| GGCTCGTTGGTCTAGTGGCATGATTCTCGCTTAGGGTGCGAGAGGTCCCGGGATGAAATCCCGGACGAGCCC [TAA T19C T53A C55G] | 0.4 |
| GGCTCGTGGGTCTATAGGGTTGATTCTCGCTTAGGGTGCGAGAGGTCCCGGGTTCAAGGCCCGGACGAGCCC [AAA T8G G15T T19G A20T A58G T59G] | 0.33 |

From the supplement of paper PMC6445147
